Sequences of proteins named here, by UniProt entry; tags and fusion partners are left off. A change or cut given only in a name is not applied to a line headed by its entry. A line that says so, or that is headed by a name, gives the form on record, which may keep a tag or linker.
FIR-FLAG (far-upstream element-binding protein (FUBP) 1-interacting repressor) (Q9UHX1, form named): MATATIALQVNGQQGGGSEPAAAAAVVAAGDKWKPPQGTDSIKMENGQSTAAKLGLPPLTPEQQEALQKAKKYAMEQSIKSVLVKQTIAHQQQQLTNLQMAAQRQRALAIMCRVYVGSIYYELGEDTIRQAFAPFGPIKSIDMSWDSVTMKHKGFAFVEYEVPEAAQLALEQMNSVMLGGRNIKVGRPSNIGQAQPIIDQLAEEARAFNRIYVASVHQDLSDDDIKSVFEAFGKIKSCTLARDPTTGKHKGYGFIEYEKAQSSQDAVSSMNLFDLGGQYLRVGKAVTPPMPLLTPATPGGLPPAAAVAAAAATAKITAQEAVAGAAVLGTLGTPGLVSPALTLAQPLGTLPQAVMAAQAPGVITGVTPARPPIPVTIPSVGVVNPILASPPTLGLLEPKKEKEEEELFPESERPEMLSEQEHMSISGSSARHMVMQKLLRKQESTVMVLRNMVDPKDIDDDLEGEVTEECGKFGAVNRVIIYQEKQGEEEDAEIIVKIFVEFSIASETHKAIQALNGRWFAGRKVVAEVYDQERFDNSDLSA

According to PMC7028737:

B1: Thyroid hormone receptor-associated protein 3 (protein, UniProt Q9Y2W1 1-955)
chain: MSKTNKSKSGSRSSRSRSASRSRSRSFSKSRSRSRSLSRSRKRRLSSRSRSRSYSPAHNRERNHPRVYQNRDFRGHNRGYRRPYYFRGRNRGFYPWGQYNRGGYGNYRSNWQNYRQAYSPRRGRSRSRSPKRRSPSPRSRSHSRNSDKSSSDRSRRSSSSRSSSNHSRVESSKRKSAKEKKSSSKDSRPSQAAGDNQGDEAKEQTFSGGTSQDTKASESSKPWPDATYGTGSASRASAVSELSPRERSPALKSPLQSVVVRRRSPRPSPVPKPSPPLSSTSQMGSTLPSGAGYQSGTHQGQFDHGSGSLSPSKKSPVGKSPPSTGSTYGSSQKEESAASGGAAYTKRYLEEQKTENGKDKEQKQTNTDKEKIKEKGSFSDTGLGDGKMKSDSFAPKTDSEKPFRGSQSPKRYKLRDDFEKKMADFHKEEMDDQDKDKAKGRKESEFDDEPKFMSKVIGANKNQEEEKSGKWEGLVYAPPGKEKQRKTEELEEESFPERSKKEDRGKRSEGGHRGFVPEKNFRVTAYKAVQEKSSSPPPRKTSESRDKLGAKGDFPTGKSSFSITREAQVNVRMDSFDEDLARPSGLLAQERKLCRDLVHSNKKEQEFRSIFQHIQSAQSQRSPSELFAQHIVTIVHHVKEHHFGSSGMTLHERFTKYLKRGTEQEAAKNKKSPEIHRRIDISPSTFRKHGLAHDEMKSPREPGYKAEGKYKDDPVDLRLDIERRKKHKERDLKRGKSRESVDSRDSSHSRERSAEKTEKTHKGSKKQKKHRRARDRSRSSSSSSQSSHSYKAEEYTEETEEREESTTGFDKSRLGTKDFVGPSERGGGRARGTFQFRARGRGWGRGNYSGNNNNNSNNDFQKRNREEEWDPEYTPKSKKYYLHDDREGEGSDKWVSRGRGRGAFPRGRGRFMFRKSSTSPKWAHDKFSGEEGEIEDDESGTENREEKDNIQPTTE
B2: Forty-two-three domain-containing protein 1 (protein, UniProt Q96QD9 1-318)
chain: MNRFGTRLVGATATSSPPPKARSNENLDKIDMSLDDIIKLNRKEGKKQNFPRLNRRLLQQSGAQQFRMRVRWGIQQNSGFGKTSLNRRGRVMPGKRRPNGVITGLAARKTTGIRKGISPMNRPPLSDKNIEQYFPVLKRKANLLRQNEGQRKPVAVLKRPSQLSRKNNIPANFTRSGNKLNHQKDTRQATFLFRRGLKVQAQLNTEQLLDDVVAKRTRQWRTSTTNGGILTVSIDNPGAVQCPVTQKPRLTRTAVPSFLTKREQSDVKKVPKGVPLQFDINSVGKQTGMTLNERFGILKEQRATLTYNKGGSRFVTVG
B3: ATP-dependent RNA helicase DDX24 (protein, UniProt Q9GZR7 1-859)
chain: MKLKDTKSRPKQSSCGKFQTKGIKVVGKWKEVKIDPNMFADGQMDDLVCFEELTDYQLVSPAKNPSSLFSKEAPKRKAQAVSEEEEEEEGKSSSPKKKIKLKKSKNVATEGTSTQKEFEVKDPELEAQGDDMVCDDPEAGEMTSENLVQTAPKKKKNKGKKGLEPSQSTAAKVPKKAKTWIPEVHDQKADVSAWKDLFVPRPVLRALSFLGFSAPTPIQALTLAPAIRDKLDILGAAETGSGKTLAFAIPMIHAVLQWQKRNAAPPPSNTEAPPGETRTEAGAETRSPGKAEAESDALPDDTVIESEALPSDIAAEARAKTGGTVSDQALLFGDDDAGEGPSSLIREKPVPKQNENEEENLDKEQTGNLKQELDDKSATCKAYPKRPLLGLVLTPTRELAVQVKQHIDAVARFTGIKTAILVGGMSTQKQQRMLNRRPEIVVATPGRLWELIKEKHYHLRNLRQLRCLVVDEADRMVEKGHFAELSQLLEMLNDSQYNPKRQTLVFSATLTLVHQAPARILHKKHTKKMDKTAKLDLLMQKIGMRGKPKVIDLTRNEATVETLTETKIHCETDEKDFYLYYFLMQYPGRSLVFANSISCIKRLSGLLKVLDIMPLTLHACMHQKQRLRNLEQFARLEDCVLLATDVAARGLDIPKVQHVIHYQVPRTSEIYVHRSGRTARATNEGLSLMLIGPEDVINFKKIYKTLKKDEDIPLFPVQTKYMDVVKERIRLARQIEKSEYRNFQACLHNSWIEQAAAALEIELEEDMYKGGKADQQEERRRQKQMKVLKKELRHLLSQPLFTESQKTKYPTQSGKPPLLVSAPSKSESALSCLSKQKKKKTKKPKEPQPEQPQPSTSAN
B4: Isoform 1 of Transformer-2 protein homolog beta (protein, UniProt P62995 1-288)
chain: MSDSGEQNYGERESRSASRSGSAHGSGKSARHTPARSRSKEDSRRSRSKSRSRSESRSRSRRSSRRHYTRSRSRSRSHRRSRSRSYSRDYRRRHSHSHSPMSTRRRHVGNRANPDPNCCLGVFGLSLYTTERDLREVFSKYGPIADVSIVYDQQSRRSRGFAFVYFENVDDAKEAKERANGMELDGRRIRVDFSITKRPHTPTPGIYMGRPTYGSSRRRDYYDRGYDRGYDDRDYYSRSYRGGGGGGGGWRAAQDRDQIYRRRSPSPYYSRGGYRSRSRSRSYSPRRY
B5: WD-repeat-containing protein 75 (protein, UniProt Q8IWA0 1-830)
chain: MVEEENIRVVRCGGSELNFRRAVFSADSKYIFCVSGDFVKVYSTVTEECVHILHGHRNLVTGIQLNPNNHLQLYSCSLDGTIKLWDYIDGILIKTFIVGCKLHALFTLAQAEDSVFVIVNKEKPDIFQLVSVKLPKSSSQEVEAKELSFVLDYINQSPKCIAFGNEGVYVAAVREFYLSVYFFKKKTTSRFTLSSSRNKKHAKNNFTCVACHPTEDCIASGHMDGKIRLWRNFYDDKKYTYTCLHWHHDMVMDLAFSVTGTSLLSGGRESVLVEWRDATEKNKEFLPRLGATIEHISVSPAGDLFCTSHSDNKIIIIHRNLEASAVIQGLVKDRSIFTGLMIDPRTKALVLNGKPGHLQFYSLQSDKQLYNLDIIQQEYINDYGLIQIELTKAAFGCFGNWLATVEQRQEKETELELQMKLWMYNKKTQGFILNTKINMPHEDCITALCFCNAEKSEQPTLVTASKDGYFKVWILTDDSDIYKKAVGWTCDFVGSYHKYQATNCCFSEDGSLLAVSFEEIVTIWDSVTWELKCTFCQRAGKIRHLCFGRLTCSKYLLGATENGILCCWNLLSCALEWNAKLNVRVMEPDPNSENIAAISQSSVGSDLFVFKPSEPRPLYIQKGISREKVQWGVFVPRDVPESFTSEAYQWLNRSQFYFLTKSQSLLTFSTKSPEEKLTPTSKQLLAEESLPTTPFYFILGKHRQQQDEKLNETLENELVQLPLTENIPAISELLHTPAHVLPSAAFLCSMFVNSLLLSKETKSAKEIPEDVDMEEEKESEDSDEENDFTEKVQDTSNTGLGEDIIHQLSKSEEKELRKFRKIDYSWIAAL
B6: CCAAT/enhancer-binding protein zeta (protein, UniProt Q03701 1-1054)
chain: MAAVKEPLEFHAKRPWRPEEAVEDPDEEDEDNTSEAENGFSLEEVLRLGGTKQDYLMLATLDENEEVIDGGKKGAIDDLQQGELEAFIQNLNLAKYTKASLVEEDEPAEKENSSKKEVKIPKINNKNTAESQRTSVNKVKNKNRPEPHSDENGSTTPKVKKDKQNIFEFFERQTLLLRPGGKWYDLEYSNEYSLKPQPQDVVSKYKTLAQKLYQHEINLFKSKTNSQKGASSTWMKAIVSSGTLGDRMAAMILLIQDDAVHTLQFVETLVNLVKKKGSKQQCLMALDTFKELLITDLLPDNRKLRIFSQRPFDKLEQLSSGNKDSRDRRLILWYFEHQLKHLVAEFVQVLETLSHDTLVTTKTRALTVAHELLCNKPEEEKALLVQVVNKLGDPQNRIATKASHLLETLLCKHPNMKGVVSGEVERLLFRSNISSKAQYYAICFLNQMALSHEESELANKLITVYFCFFRTCVKKKDVESKMLSALLTGVNRAYPYSQTGDDKVREQIDTLFKVLHIVNFNTSVQALMLLFQVMNSQQTISDRYYTALYRKMLDPGLMTCSKQAMFLNLVYKSLKADIVLRRVKAFVKRLLQVTCQQMPPFICGALYLVSEILKAKPGLRSQLDDHPESDDEENFIDANDDEDMEKFTDADKETEIVKKLETEETVPETDVETKKPEVASWVHFDNLKGGKQLNKYDPFSRNPLFCGAENTSLWELKKLSVHFHPSVALFAKTILQGNYIQYSGDPLQDFTLMRFLDRFVYRNPKPHKGKENTDSVVMQPKRKHFIKDIRHLPVNSKEFLAKEESQIPVDEVFFHRYYKKVAVKEKQKRDADEESIEDVDDEEFEELIDTFEDDNCFSSGKDDMDFAGNVKKRTKGAKDNTLDEDSEGSDDELGNLDDDEVSLGSMDDEEFAEVDEDGGTFMDVLDDESESVPELEVHSKVSTKKSKRKGTDDFDFAGSFQGPRKKKRNLNDSSLFVSAEEFGHLLDENMGSKFDNIGMNAMANKDNASLKQLRWEAERDDWLHNRDAKSIIKKKKHFKKKRIKTTQKTKKQRK
B7: WD-repeat-containing protein 43 (protein, UniProt Q15061 1-677)
chain: MAAGGGGSCDPLAPAGVPCAFSPHSQAYFALASTDGHLRVWETANNRLHQEYVPSAHLSGTCTCLAWAPARLQAKESPQRKKRKSEAVGMSNQTDLLALGTAVGSILLYSTVKGELHSKLISGGHDNRVNCIQWHQDSGCLYSCSDDKHIVEWNVQTCKVKCKWKGDNSSVSSLCISPDGKMLLSAGRTIKLWVLETKEVYRHFTGHATPVSSLMFTTIRPPNESQPFDGITGLYFLSGAVHDRLLNVWQVRSENKEKSAVMSFTVTDEPVYIDLTLSENKEEPVKLAVVCRDGQVHLFEHILNGYCKKPLTSNCTIQIATPGKGKKSTPKPIPILAAGFCSDKMSLLLVYGSWFQPTIERVALNSREPHMCLVRDISNCWAPKVETAITKVRTPVMNSEAKVLVPGIPGHHAAIKPAPPQTEQVESKRKSGGNEVSIEERLGAMDIDTHKKGKEDLQTNSFPVLLTQGLESNDFEMLNKVLQTRNVNLIKKTVLRMPLHTIIPLLQELTKRLQGHPNSAVLMVQWLKCVLTVHASYLSTLPDLVPQLGTLYQLMESRVKTFQKLSHLHGKLILLITQVTASEKTKGATSPGQKAKLVYEEESSEEESDDEIADKDSEDNWDEDEEESESEKDEDVEEEDEDAEGKDEENGEDRDTASEKELNGDSDLDPENESEEE
B8: Uncharacterized protein C19orf21 (protein, UniProt Q8IVT2 1-679)
chain: MDRVTRYPILGIPQAHRGTGLVLDGDTSYTYHLVCMGPEASGWGQDEPQTWPTDHRAQQGVQRQGVSYSVHAYTGQPSPRGLHSENREDEGWQVYRLGARDAHQGRPTWALRPEDGEDKEMKTYRLDAGDADPRRLCDLERERWAVIQGQAVRKSSTVATLQGTPDHGDPRTPGPPRSTPLEENVVDREQIDFLAARQQFLSLEQANKGAPHSSPARGTPAGTTPGASQAPKAFNKPHLANGHVVPIKPQVKGVVREENKVRAVPTWASVQVVDDPGSLASVESPGTPKETPIEREIRLAQEREADLREQRGLRQATDHQELVEIPTRPLLTKLSLITAPRRERGRPSLYVQRDIVQETQREEDHRREGLHVGRASTPDWVSEGPQPGLRRALSSDSILSPAPDARAADPAPEVRKVNRIPPDAYQPYLSPGTPQLEFSAFGAFGKPSSLSTAEAKAATSPKATMSPRHLSESSGKPLSTKQEASKPPRGCPQANRGVVRWEYFRLRPLRFRAPDEPQQAQVPHVWGWEVAGAPALRLQKSQSSDLLERERESVLRREQEVAEERRNALFPEVFSPTPDENSDQNSRSSSQASGITGSYSVSESPFFSPIHLHSNVAWTVEDPVDSAPPGQRKKEQWYAGINPSDGINSEVLEAIRVTRHKNAMAERWESRIYASEEDD

Target: FIR-FLAG (far-upstream element-binding protein (FUBP) 1-interacting repressor) (human) (UniProt Q9UHX1)
Experiment: affinity purification with mass spectrometry; Flag-conjugated beads pull down of FIR-FLAG or FIRΔexon2-FLAG from HeLa cells, GeLC-MS / LC-MS; data first obtained with the cell systems of ref. 9 and re-evaluated here

| binding | Binder |
| --- | --- |
| binds | B1 |
| binds | B2 |
| binds | B3 |
| binds | B4 |
| binds | B5 |
| binds | B6 |
| binds | B7 |
| binds | B8 |

Target: FIRΔexon2-FLAG (human)
Experiment: as above

| binding | Binder |
| --- | --- |
| binds | B1 |
| binds | B2 |
| binds | B3 |
| binds | B4 |
| binds | B5 |
| binds | B6 |
| binds | B7 |
| binds | B8 |

No constants are given. Whether binding was seen depends on the method and setting. In cells and extracts the contact can be indirect. A yes stands for co-enrichment or nearness to the bait. Other partners may have been found.
